What was measured:
Assay in all cases: microarray analysis
Format in all cases: cell-based, human
HCT-116 = test system: HCT-116
Method: (§1) Microarrays. A total of 0.5×10^6 tumor cells (HCT-116, HT-29, KM12C) were plated in a 6-well plate and allowed to adhere overnight before 24-hour treatment, as indicated. Then, 1×10^6 immune cells (NK92, TALL-104) were plated and treated with elraglusib as indicated for twenty-four h. RNA was isolated from cell pellets in batches of six using a RNeasy Plus Mini Kit (Cat #74134, Qiagen, Hilden, Germany). Acceptable RNA concentration and quality were verified with Nanodrop and Bioanalyzer measurements. GeneChip™ Human Transcriptome Array 2.0 assays were conducted according to manufacturer instructions in two batches using randomized samples to limit batch effects (Cat #902162, Applied Biosystems, Waltham, MA, USA). Applied Biosystems Transcriptomic Analysis Console (TAC) software (RRID: SCR_016519) was used to calculate fold changes in gene expression relative to the untreated control cells. Values were considered statistically significant for p values<0.05.
(§2) The inventors then utilized microarray analysis to gain insights into gene expression changes in colorectal cancer cell lines post-GSK-3 inhibition with elraglusib. Several colorectal cancer cell lines (HCT-116, HT-29, KM12C) were treated with elraglusib at IC-50 concentrations or DMSO as vehicle control for twenty-four hours. Treated versus untreated samples were compared in triplicate using microarray analysis FIG. 10. Results were calculated using a fold change (FC) cutoff of >1.5, <−1.5, and a minimum p-value of<0.05. HCT-116 cells had 340 differentially expressed genes post-treatment. FIG. 2C.

HT-29 = test system: HT-29
Method: as §1, §2
TABLE 9 description. HT-29 CRC cell microarray analysis. HT-29 colorectal cancer cells were treated with 1 μM elraglusib for 24 hours and treated versus untreated control samples were compared in triplicate via microarray analysis (N=3). Table showing differentially expressed genes of interest with their corresponding fold changes, p values, descriptions, and functions. […] Genes are ordered by fold change and were calculated using a fold change cutoff of >1.5, <−1.5, and a minimum p value of <0.05.

KM12C = test system: KM12C
[1] = 24 hours, FC >1.5, <−1.5, p<0.05
[2] = of 3124 genes in three cell lines

Question: Which results are given for `Cn1cc(C2=C(c3coc4ccc(F)cc34)C(=O)NC2=O)c2cc3c(cc21)OCO3` [elraglusib]?
Answer: differentially expressed genes post-treatment (HCT-116; [1]): 340; differentially expressed genes (Venn diagram) (HCT-116; [2]): 241; downregulated genes in VEGFA-VEGFR2 pathway (HCT-116; post-elraglusib): 29; differentially expressed genes post-treatment (HT-29; [1]): 2307; differentially expressed genes (Venn diagram) (HT-29; [2]): 1805; downregulated genes in VEGFA-VEGFR2 pathway (HT-29; post-elraglusib): 37; differentially expressed genes post-treatment (KM12C; [1]): 1032; differentially expressed genes (Venn diagram) (KM12C; [2]): 549; downregulated genes in VEGFA-VEGFR2 pathway (KM12C; post-elraglusib): forty-eight

From patent US20240041830A1, “CIRCULATING BIOMARKERS OF RESPONSE TO PD-1/PD-L1 BLOCKADE AND GSK-3 INHIBITION” (Brown University, priority 2022, published 2024)
